Data published in article PMC5421814, “A Sequence in the loop domain of hepatitis C virus E2 protein identified in silico as crucial for the selective binding to human CD81” (PLoS ONE, 2017).
Results are given in words; binding and its absence hold for the method and conditions named. Some entries that bind do so weakly or less than the wild type.

T1: human CD81 on Huh-7 cells (human (endogenous in Huh-7)) (UniProt P60033)
T1 sequence: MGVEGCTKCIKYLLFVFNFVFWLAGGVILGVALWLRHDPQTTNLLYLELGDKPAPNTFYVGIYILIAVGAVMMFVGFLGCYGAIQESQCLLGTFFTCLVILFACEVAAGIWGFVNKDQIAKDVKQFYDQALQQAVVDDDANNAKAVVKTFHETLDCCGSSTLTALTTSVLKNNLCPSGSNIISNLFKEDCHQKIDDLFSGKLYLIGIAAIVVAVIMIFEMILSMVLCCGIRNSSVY

T2: rat CD81 on PC-12 cells (rat (endogenous in PC-12)) (UniProt Q62745)
T2 sequence: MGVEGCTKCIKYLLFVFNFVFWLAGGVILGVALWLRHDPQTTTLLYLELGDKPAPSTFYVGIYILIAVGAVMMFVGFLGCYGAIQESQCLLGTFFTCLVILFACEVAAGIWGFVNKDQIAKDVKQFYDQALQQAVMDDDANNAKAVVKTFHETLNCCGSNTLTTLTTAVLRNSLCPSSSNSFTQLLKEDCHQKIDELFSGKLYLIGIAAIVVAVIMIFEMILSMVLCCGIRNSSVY

B1: p_E2-site1 (peptide)
peptide: INSTALNCNESLNTGWLAGLFYQ
notes: hepatitis C virus envelope glycoprotein E2, residues 422-444 of the polyprotein; also called E2-site1 peptide; E2-s1; source: synthetic peptide, bought: GeneMark (GMbiolab Co., Ltd., Taiwan)
B2: p_E2-site2 (peptide)
peptide: RSGAPTYSWGANDTDVF
notes: hepatitis C virus envelope glycoprotein E2, residues 521-537 of the polyprotein; also called E2-site2 peptide; E2-s2; source: synthetic peptide, bought: GeneMark (GMbiolab Co., Ltd., Taiwan)

Key:
[1] = molecular target: T1, human CD81 on Huh-7 cells (human (endogenous in Huh-7)); assay: flow cytometry on cells; Huh-7 or PC-12 cells (1 x 10^6 cells/mL) in PBS with 5% BSA, treated with 2, 5, 10, 20, 30 and 40 μM fluorescent peptide for 30 min in the dark, washed twice; only the binder purified
[2] = molecular target: T2, rat CD81 on PC-12 cells (rat (endogenous in PC-12)); assay: as above
[3] = molecular target: T1, human CD81 on Huh-7 cells (human (endogenous in Huh-7)); assay: flow cytometry on cells; competition: Huh-7 cells pretreated with nonfluorescent peptide (10, 20, 40 μM) in PBS with 5% BSA for 30 min, then FITC-labelled anti-human-CD81 monoclonal antibodies for 30 min; only the binder purified

| Binder | binding [1] | binding [2] | binding [3] |
| --- | --- | --- | --- |
| INSTALNCNESLNTGWLAGLFYQ (labelled with the fluorescent dye 5-carboxyfluorescein (position not given)) [fluorescent p_E2-site1] | binds | no binding (tested: 40 μM) | – |
| RSGAPTYSWGANDTDVF (labelled with the fluorescent dye 5-carboxyfluorescein (position not given)) [fluorescent p_E2-site2] | binds | no binding (tested: 40 μM) | – |
| B1 | – | – | binds |
| B2 | – | – | binds |
